From publication PMC9004082
These are yes or no findings as the source states them, for the method shown. For some of these results: Binding seen in cells or lysates may run through a third protein. Some results given as binding are weak or reduced against the parent protein; the word gives no strength. Where a sequence is shown, tags or fusion partners need not be part of it.

Key:
[1] = biological target: TDP-43 C-terminal fragment (aa 262-414) fused to mClover3 or mRuby3 (TDP-43 biosensor constructs); assay: condition: only cells without TDP-43 PFF (50 nM TDP-43 monomer or empty Lipofectamine); FRET or BRET; same TDP-43 biosensor cells without seeds: empty Lipofectamine or 50 nM TDP-43 monomer, 48 h
[2] = biological target: TDP-43 C-terminal fragment (aa 262-414) fused to mClover3 or mRuby3 (TDP-43 biosensor constructs); assay: detergent fractionation by ultracentrifugation with immunoblot; lysates of TDP-43 biosensor cells treated with TDP-43 PFF for 48 h; RIPA soluble and insoluble fractions; anti-GFP blot of the tagged CTF
[3] = biological target: TDP-43 C-terminal fragment (aa 262-414) fused to mClover3 or mRuby3 (TDP-43 biosensor constructs); assay: FRET or BRET; TDP-43 CTF-mClover3 and TDP-43 CTF-mRuby3 co-expressed in HEK293T biosensor cells; 50 nM TDP-43 PFF applied with Lipofectamine for 48 h; FRET by confocal microscopy and flow cytometry; also run with NMS-873 or VCP mutant expression
[4] = biological target: TDP-43 C-terminal fragment (aa 262-414) fused to mClover3 or mRuby3 (TDP-43 biosensor constructs); assay: condition: only cells treated with TDP-43 monomer instead of PFF; detergent fractionation by ultracentrifugation with immunoblot; lysates of TDP-43 biosensor cells treated with TDP-43 monomer for 48 h; RIPA soluble and insoluble fractions; anti-GFP blot of the tagged CTF

binding [1]: no binding | binding [2]: binds | binding [3]: binds | binding [4]: no binding
B1: TDP-43 C-terminal fragment (aa 262-414) fused to mClover3 or mRuby3 (TDP-43 biosensor constructs) (domain or fragment)
chain: MAKHNSNRQLERSGRFGGNPGGFGNQGGFGNSRGGGAGLGNNQGSNMGGGMNFGAFSINPAMMAAAQAALQSSWGMMGMLASQQNQSGPSGNNQNQGNMQREPNQAFGSGNNSYSGSNSGAAIGWGSASNAGSGSGFNGGFGSSMDSKSSGWGMGSAGSAAGSGEF
